Test results from the supplement of paper PMC6078165.
± gives the standard deviation of the averaged measurements. The reference is the same well before dosing, and untreated signal decays as well.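 Fibroblast labels denote human fibroblasts, mainly primary ones from uterus (C12385, HUF), lung (H6013), bone (Hs27A), adrenal (HADF) and skin (WS1), plus mammary HMF and breast cancer-associated Hs343T. Cancer cells are basal-like or mesenchymal-like triple-negative breast cancer lines. A hit is a response shift exceeding 3x replicate standard deviation. The tissue of the other fibroblasts is not given here.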

Tested on: MDAMB436
Experiment: relative JC-1 red fluorescence (viability) vs pre-drug, coculture with fibroblast (fraction); higher = more viable cancer cells
Protocol: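 JC-1 labelled TNBC cells cocultured 1:1 (1,500 cells each) with CellTrace Violet stained primary or stromal fibroblasts in 384-well plates in FluoroBrite medium, treated with one of 42 anticancer drugs at 0.1, 1, 10 or 100 uM. JC-1 red fluorescence (mitochondrial integrity in cancer cells only) was read by plate reader every 8 h for 72 h. Values are normalised to each well's pre-drug value. The stock of one drug was tenfold lower, so its dose labels may be too high.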

C=C1C[C@@H]2[C@H](CC[C@]3(C)C(=O)CC[C@@H]23)[C@@]2(C)C=CC(=O)C=C12 [Exemestane]
relative JC-1 red fluorescence
Settings	8 h	16 h	24 h	32 h	40 h	48 h	56 h	64 h	72 h
0.1 µM, coculture fibroblast: C12385	0.838 ± 0.027	0.691 ± 0.054	0.703 ± 0.054	0.628 ± 0.066	0.578 ± 0.061	0.558 ± 0.059	0.545 ± 0.056	0.538 ± 0.052	0.533 ± 0.053
0.1 µM, coculture fibroblast: H6013	0.871 ± 0.043	0.743 ± 0.056	0.754 ± 0.069	0.756 ± 0.073	0.757 ± 0.083	0.786 ± 0.086	0.758 ± 0.089	0.756 ± 0.088	0.711 ± 0.1
0.1 µM, coculture fibroblast: H6019	0.725 ± 0.013	0.612 ± 0.01	0.588 ± 0.026	0.51 ± 0.018	0.472 ± 0.018	0.454 ± 0.023	0.42 ± 0.023	0.399 ± 0.023	0.374 ± 0.018
0.1 µM, coculture fibroblast: H6076	0.727 ± 0.013	0.632 ± 0.033	0.612 ± 0.035	0.581 ± 0.049	0.576 ± 0.041	0.543 ± 0.041	0.563 ± 0.041	0.548 ± 0.044	0.548 ± 0.044
0.1 µM, coculture fibroblast: H6231	0.775 ± 0.028	0.712 ± 0.025	0.685 ± 0.0095	0.613 ± 0.013	0.578 ± 0.025	0.544 ± 0.026	0.525 ± 0.043	0.509 ± 0.035	0.473 ± 0.033
0.1 µM, coculture fibroblast: HADF	0.824 ± 0.017	0.7208 ± 0.0021	0.691 ± 0.014	0.663 ± 0.008	0.65276 ± 0.00018	0.665 ± 0.0087	0.614 ± 0.011	0.603 ± 0.016	0.565 ± 0.015
0.1 µM, coculture fibroblast: HCFa	0.82 ± 0.028	0.703 ± 0.013	0.692 ± 0.0077	0.678 ± 0.013	0.643 ± 0.013	0.6476 ± 0.0016	0.584 ± 0.0064	0.5662 ± 0.0024	0.515 ± 0.012
0.1 µM, coculture fibroblast: HCPF	0.761 ± 0.0089	0.684 ± 0.028	0.657 ± 0.014	0.598 ± 0.0092	0.586 ± 0.014	0.553 ± 0.016	0.53 ± 0.013	0.501 ± 0.0078	0.4838 ± 0.0035
0.1 µM, coculture fibroblast: HHSteC	0.8277 ± 0.0066	0.737 ± 0.0091	0.7219 ± 0.002	0.7002 ± 0.0038	0.693 ± 0.012	0.705 ± 0.0073	0.645 ± 0.0079	0.632 ± 0.011	0.571 ± 0.012
0.1 µM, coculture fibroblast: HMF	0.774 ± 0.018	0.6575 ± 0.0054	0.619 ± 0.015	0.581 ± 0.021	0.56 ± 0.034	0.534 ± 0.03	0.53 ± 0.036	0.51 ± 0.046	0.501 ± 0.043
0.1 µM, coculture fibroblast: HPFa	0.894 ± 0.024	0.84 ± 0.078	0.791 ± 0.089	0.766 ± 0.12	0.751 ± 0.13	0.763 ± 0.13	0.667 ± 0.13	0.631 ± 0.13	0.548 ± 0.13
0.1 µM, coculture fibroblast: HUF	0.846 ± 0.018	0.721 ± 0.028	0.694 ± 0.025	0.625 ± 0.026	0.57 ± 0.019	0.545 ± 0.027	0.516 ± 0.028	0.504 ± 0.027	0.498 ± 0.025
0.1 µM, coculture fibroblast: Hs5	0.812 ± 0.05	0.703 ± 0.055	0.683 ± 0.029	0.625 ± 0.029	0.6094 ± 0.004	0.568 ± 0.011	0.571 ± 0.0072	0.541 ± 0.016	0.523 ± 0.014
0.1 µM, coculture fibroblast: Hs27A	0.77 ± 0.032	0.705 ± 0.04	0.667 ± 0.051	0.651 ± 0.062	0.62 ± 0.064	0.68 ± 0.071	0.589 ± 0.064	0.57 ± 0.064	0.49 ± 0.054
0.1 µM, coculture fibroblast: Hs343T	0.7867 ± 0.0055	0.692 ± 0.049	0.643 ± 0.063	0.597 ± 0.073	0.564 ± 0.08	0.524 ± 0.076	0.505 ± 0.064	0.484 ± 0.065	0.471 ± 0.06
0.1 µM, coculture fibroblast: WS1	0.8057 ± 0.0049	0.656 ± 0.012	0.653 ± 0.038	0.568 ± 0.031	0.52 ± 0.032	0.498 ± 0.037	0.471 ± 0.038	0.442 ± 0.032	0.432 ± 0.033
1 µM, coculture fibroblast: C12385	0.796 ± 0.012	0.6675 ± 0.0044	0.665 ± 0.008	0.58 ± 0.018	0.538 ± 0.019	0.508 ± 0.018	0.495 ± 0.018	0.488 ± 0.016	0.479 ± 0.015
1 µM, coculture fibroblast: H6013	0.831 ± 0.057	0.738 ± 0.021	0.734 ± 0.026	0.722 ± 0.031	0.702 ± 0.029	0.73 ± 0.033	0.7 ± 0.02	0.684 ± 0.032	0.646 ± 0.036
1 µM, coculture fibroblast: H6019	0.7536 ± 0.00082	0.658 ± 0.02	0.654 ± 0.0076	0.58 ± 0.0085	0.5442 ± 0.001	0.525 ± 0.0093	0.492 ± 0.0059	0.462 ± 0.011	0.438 ± 0.014
1 µM, coculture fibroblast: H6076	0.783 ± 0.018	0.651 ± 0.028	0.641 ± 0.039	0.594 ± 0.039	0.567 ± 0.039	0.543 ± 0.037	0.55 ± 0.047	0.554 ± 0.044	0.552 ± 0.041
1 µM, coculture fibroblast: H6231	0.7911 ± 0.004	0.72371 ± 0.00052	0.71 ± 0.011	0.654 ± 0.015	0.621 ± 0.013	0.584 ± 0.0064	0.569 ± 0.015	0.54 ± 0.011	0.519 ± 0.0091
1 µM, coculture fibroblast: HADF	0.823 ± 0.015	0.7209 ± 0.0044	0.698 ± 0.024	0.665 ± 0.042	0.644 ± 0.065	0.66 ± 0.08	0.61 ± 0.085	0.602 ± 0.087	0.562 ± 0.087
1 µM, coculture fibroblast: HCFa	0.818 ± 0.011	0.716 ± 0.027	0.704 ± 0.032	0.662 ± 0.028	0.645 ± 0.027	0.66 ± 0.023	0.588 ± 0.02	0.575 ± 0.018	0.515 ± 0.0098
1 µM, coculture fibroblast: HCPF	0.8056 ± 0.0059	0.735 ± 0.016	0.718 ± 0.039	0.663 ± 0.028	0.635 ± 0.038	0.604 ± 0.042	0.58 ± 0.053	0.56 ± 0.049	0.539 ± 0.057
1 µM, coculture fibroblast: HHSteC	0.834 ± 0.021	0.7515 ± 0.0009	0.726 ± 0.0078	0.684 ± 0.0099	0.671 ± 0.01	0.677 ± 0.0099	0.608 ± 0.011	0.584 ± 0.021	0.53 ± 0.022
1 µM, coculture fibroblast: HMF	0.799 ± 0.026	0.692 ± 0.056	0.7 ± 0.12	0.667 ± 0.14	0.646 ± 0.15	0.625 ± 0.16	0.626 ± 0.18	0.618 ± 0.18	0.61 ± 0.21
1 µM, coculture fibroblast: HPFa	0.8768 ± 0.0024	0.81 ± 0.021	0.793 ± 0.045	0.745 ± 0.043	0.725 ± 0.061	0.731 ± 0.059	0.637 ± 0.053	0.596 ± 0.05	0.51 ± 0.038
1 µM, coculture fibroblast: HUF	0.859 ± 0.019	0.729 ± 0.019	0.71 ± 0.031	0.64 ± 0.042	0.585 ± 0.039	0.564 ± 0.055	0.539 ± 0.06	0.526 ± 0.064	0.513 ± 0.065
1 µM, coculture fibroblast: Hs5	0.806 ± 0.035	0.685 ± 0.011	0.6635 ± 0.0038	0.6093 ± 0.00073	0.5979 ± 0.0034	0.559 ± 0.01	0.558 ± 0.02	0.539 ± 0.03	0.519 ± 0.046
1 µM, coculture fibroblast: Hs27A	0.802 ± 0.017	0.746 ± 0.016	0.747 ± 0.058	0.739 ± 0.081	0.72 ± 0.095	0.79 ± 0.094	0.687 ± 0.11	0.676 ± 0.11	0.593 ± 0.12
1 µM, coculture fibroblast: Hs343T	0.79 ± 0.0083	0.6557 ± 0.0029	0.64 ± 0.011	0.60249 ± 0.00033	0.568 ± 0.0057	0.537 ± 0.01	0.5229 ± 0.0044	0.5083 ± 0.0034	0.506 ± 0.0052
1 µM, coculture fibroblast: WS1	0.806 ± 0.011	0.676 ± 0.0096	0.674 ± 0.03	0.603 ± 0.029	0.56 ± 0.045	0.535 ± 0.052	0.507 ± 0.063	0.485 ± 0.068	0.48 ± 0.075
